Measured values reported in article PMC12382147.

Biological target: T1, Flag-TPIT (UniProt O60806)
T1 sequence: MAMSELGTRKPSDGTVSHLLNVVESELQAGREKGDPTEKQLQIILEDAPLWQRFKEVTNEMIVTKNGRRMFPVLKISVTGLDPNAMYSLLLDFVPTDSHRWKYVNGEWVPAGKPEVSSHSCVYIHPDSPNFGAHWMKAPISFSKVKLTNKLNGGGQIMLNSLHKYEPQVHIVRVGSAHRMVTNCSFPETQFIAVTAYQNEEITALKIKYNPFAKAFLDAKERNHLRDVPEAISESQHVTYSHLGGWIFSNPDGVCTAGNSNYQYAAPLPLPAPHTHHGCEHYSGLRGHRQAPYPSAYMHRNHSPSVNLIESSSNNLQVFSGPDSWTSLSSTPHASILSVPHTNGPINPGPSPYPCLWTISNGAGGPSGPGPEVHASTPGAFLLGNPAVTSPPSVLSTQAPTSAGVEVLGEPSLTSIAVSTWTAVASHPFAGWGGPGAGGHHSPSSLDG
Test: co-IP; exogenous ('external') Co-IP of Flag-TPIT with candidate ubiquitin ligases, Myc-tagged STUB1 or its truncated mutants; Triton X-100 lysis buffer, rProtein A/G beads, immunoblot; also with Irbesartan, Bosentan or Lumiracoxib (interaction enhanced)

Myc-tagged STUB1 lacking the TPR domain (domain or fragment)
binding: no binding

These are yes or no findings as the source states them, for the method shown. In cells and extracts the contact can be indirect. Tags and fused reporters may be left off the sequences shown.
